Reference: EP3468988B1, “PEPTIDES FOR THE INHIBITION OF PARASITE INFECTION” (Aqua Health AS, priority 2016, dated 2024)
At least one peptide structure holds a part that was inferred or is arguable (an end, a ring closure or a residue). Ends that are not written are not given here.

System: recombinant LsTryp1
Assay: Protease inhibition assay (Pierce Fluorescent Protease Assay Kit, FITC-casein substrate)
Type: biochemical, L. salmonis
Conditions: peptide 100 µM, 30 minutes, compared with PMSF at the same molar concentration

KLTINDASLC [P5, KLTINDASLC]
inhibitory activity (protease activity of recombinant LsTryp 1): indistinguishable in magnitude from that of the potent serine protease inhibitor, PMSF

VLGEEWHMEGCM [P3, VLGEEWHMEGCM]
inhibitory activity (protease activity of recombinant LsTryp 1): indistinguishable in magnitude from that of the potent serine protease inhibitor, PMSF
